According to the supplement of paper PMC6411743:
± gives the standard deviation of the averaged measurements. Some of the results follow.

The chains behind the UniProt entries cited, without tags or fusion partners. Where a name states a change or a piece, a line headed by the entry shows the natural chain unless it says otherwise.
UniProt Q96RQ3: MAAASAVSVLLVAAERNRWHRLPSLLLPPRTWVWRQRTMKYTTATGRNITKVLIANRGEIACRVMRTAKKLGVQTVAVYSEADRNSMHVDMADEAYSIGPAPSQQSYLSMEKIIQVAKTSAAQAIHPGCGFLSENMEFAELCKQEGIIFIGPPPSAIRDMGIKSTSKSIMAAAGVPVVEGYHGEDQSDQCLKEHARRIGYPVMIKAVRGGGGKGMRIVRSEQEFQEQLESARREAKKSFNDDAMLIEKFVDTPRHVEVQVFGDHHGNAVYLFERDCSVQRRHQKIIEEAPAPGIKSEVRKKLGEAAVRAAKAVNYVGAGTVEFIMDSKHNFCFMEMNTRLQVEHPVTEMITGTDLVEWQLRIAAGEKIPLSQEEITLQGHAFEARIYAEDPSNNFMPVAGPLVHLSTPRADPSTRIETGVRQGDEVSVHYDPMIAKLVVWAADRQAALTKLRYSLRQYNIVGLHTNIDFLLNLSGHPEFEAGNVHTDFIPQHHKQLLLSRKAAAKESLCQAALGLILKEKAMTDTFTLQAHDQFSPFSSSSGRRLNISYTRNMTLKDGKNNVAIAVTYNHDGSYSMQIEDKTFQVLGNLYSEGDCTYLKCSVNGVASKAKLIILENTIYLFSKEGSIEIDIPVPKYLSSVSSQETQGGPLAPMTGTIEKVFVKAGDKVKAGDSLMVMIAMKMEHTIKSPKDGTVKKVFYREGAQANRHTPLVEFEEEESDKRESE
UniProt Q9UJX4, whole entry: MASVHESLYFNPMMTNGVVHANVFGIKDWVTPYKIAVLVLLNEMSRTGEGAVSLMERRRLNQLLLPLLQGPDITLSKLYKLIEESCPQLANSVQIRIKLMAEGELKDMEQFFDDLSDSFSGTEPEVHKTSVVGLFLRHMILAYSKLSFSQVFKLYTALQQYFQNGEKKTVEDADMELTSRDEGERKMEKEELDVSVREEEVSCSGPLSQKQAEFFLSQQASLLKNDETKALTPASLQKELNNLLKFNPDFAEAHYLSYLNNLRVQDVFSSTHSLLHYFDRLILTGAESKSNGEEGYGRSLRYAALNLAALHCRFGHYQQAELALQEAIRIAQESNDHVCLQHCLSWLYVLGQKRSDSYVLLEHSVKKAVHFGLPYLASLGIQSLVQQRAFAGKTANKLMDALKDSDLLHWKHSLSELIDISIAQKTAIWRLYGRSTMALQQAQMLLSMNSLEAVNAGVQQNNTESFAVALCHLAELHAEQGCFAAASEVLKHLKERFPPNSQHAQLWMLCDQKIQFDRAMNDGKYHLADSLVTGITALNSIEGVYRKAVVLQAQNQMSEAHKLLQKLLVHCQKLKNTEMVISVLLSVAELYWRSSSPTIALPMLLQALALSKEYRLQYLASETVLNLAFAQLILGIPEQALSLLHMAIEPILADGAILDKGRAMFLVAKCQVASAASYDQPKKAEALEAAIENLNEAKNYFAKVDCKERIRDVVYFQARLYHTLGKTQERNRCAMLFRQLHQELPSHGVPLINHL
UniProt Q13586, whole entry: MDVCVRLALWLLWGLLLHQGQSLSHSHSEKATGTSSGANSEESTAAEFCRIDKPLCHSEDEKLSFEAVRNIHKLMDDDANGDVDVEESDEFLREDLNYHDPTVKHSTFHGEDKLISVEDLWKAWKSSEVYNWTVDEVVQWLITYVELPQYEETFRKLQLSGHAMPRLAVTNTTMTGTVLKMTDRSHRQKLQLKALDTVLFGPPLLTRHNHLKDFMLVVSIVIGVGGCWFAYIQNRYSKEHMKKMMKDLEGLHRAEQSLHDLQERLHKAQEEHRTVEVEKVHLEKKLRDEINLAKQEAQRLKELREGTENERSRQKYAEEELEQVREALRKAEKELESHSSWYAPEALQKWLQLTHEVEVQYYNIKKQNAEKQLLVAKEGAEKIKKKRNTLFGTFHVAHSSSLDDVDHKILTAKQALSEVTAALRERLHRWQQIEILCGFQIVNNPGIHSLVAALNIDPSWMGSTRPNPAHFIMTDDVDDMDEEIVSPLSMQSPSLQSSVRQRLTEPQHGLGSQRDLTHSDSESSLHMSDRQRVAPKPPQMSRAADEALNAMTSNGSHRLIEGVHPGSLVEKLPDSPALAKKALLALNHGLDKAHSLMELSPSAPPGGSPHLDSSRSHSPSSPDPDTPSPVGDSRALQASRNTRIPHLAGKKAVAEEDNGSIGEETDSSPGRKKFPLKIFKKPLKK
UniProt Q9C0E2: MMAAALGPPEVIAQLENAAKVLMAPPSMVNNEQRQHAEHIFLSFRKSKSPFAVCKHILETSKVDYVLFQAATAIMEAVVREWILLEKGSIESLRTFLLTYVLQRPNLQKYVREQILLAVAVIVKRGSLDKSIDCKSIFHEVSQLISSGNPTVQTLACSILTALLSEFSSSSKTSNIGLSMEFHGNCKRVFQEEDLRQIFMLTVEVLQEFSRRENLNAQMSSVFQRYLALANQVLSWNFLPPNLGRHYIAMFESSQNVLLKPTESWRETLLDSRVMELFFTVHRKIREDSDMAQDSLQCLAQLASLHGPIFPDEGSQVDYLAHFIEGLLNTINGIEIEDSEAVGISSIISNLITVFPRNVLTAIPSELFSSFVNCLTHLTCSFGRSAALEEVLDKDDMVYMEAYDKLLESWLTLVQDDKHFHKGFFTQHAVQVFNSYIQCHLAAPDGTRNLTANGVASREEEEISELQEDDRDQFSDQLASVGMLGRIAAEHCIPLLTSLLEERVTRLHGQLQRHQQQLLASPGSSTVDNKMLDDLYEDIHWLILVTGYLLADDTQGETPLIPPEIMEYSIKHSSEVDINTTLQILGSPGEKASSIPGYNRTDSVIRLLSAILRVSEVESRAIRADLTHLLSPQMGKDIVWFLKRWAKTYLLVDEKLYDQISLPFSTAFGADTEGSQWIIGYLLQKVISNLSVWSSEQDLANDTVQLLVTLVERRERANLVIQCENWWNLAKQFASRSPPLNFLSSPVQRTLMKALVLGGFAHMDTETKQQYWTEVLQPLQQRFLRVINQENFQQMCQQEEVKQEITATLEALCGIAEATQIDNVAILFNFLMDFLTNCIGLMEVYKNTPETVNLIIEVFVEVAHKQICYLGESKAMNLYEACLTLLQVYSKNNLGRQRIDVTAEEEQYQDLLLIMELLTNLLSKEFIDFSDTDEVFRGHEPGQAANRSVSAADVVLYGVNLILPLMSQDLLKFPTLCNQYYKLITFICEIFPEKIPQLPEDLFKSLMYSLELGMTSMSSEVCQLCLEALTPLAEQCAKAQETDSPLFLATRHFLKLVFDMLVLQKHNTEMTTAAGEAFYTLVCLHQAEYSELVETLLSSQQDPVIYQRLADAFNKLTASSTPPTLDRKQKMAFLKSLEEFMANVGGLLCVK
UniProt O75251, whole entry: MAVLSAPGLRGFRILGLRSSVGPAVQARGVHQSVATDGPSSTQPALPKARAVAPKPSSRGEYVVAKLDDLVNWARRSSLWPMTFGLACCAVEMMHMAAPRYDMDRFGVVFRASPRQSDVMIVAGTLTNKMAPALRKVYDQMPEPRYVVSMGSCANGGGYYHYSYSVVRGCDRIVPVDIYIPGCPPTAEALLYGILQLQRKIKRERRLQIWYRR

Compound: Nc1nc2c(ncn2[C@@H]2O[C@H](COP(=O)(O)OP(=O)(O)OP(=O)(O)O)[C@@H](O)[C@H]2O)c(=O)[nH]1 [guanosine triphosphate]
Test: NP40-soluble protein abundance relative to vehicle (solubility fold change) (ratio); higher = more soluble protein in presence of GTP
Procedure: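 Solubility proteome profiling in Jurkat crude lysate. Lysate was treated with Mg-GTP (0.1-10 mM) for 10 min at room temperature and 3 min at 37 °C, then solubilised with 0.8% NP40 and benzonase, followed by ultracentrifugation. Proteins were quantified by TMT10 LC-MS/MS; the value is the NP40-soluble abundance relative to the NP40-processed vehicle, from 3 independent experiments.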

Work on “E9PG35 and related entries (UniProt Q96RQ3)” yielded an NP40-soluble protein abundance (concentration: 0.1mM) of 1.04 ± 0.093, an NP40-soluble protein abundance (concentration: 0.5mM) of 1.07 ± 0.078 and an NP40-soluble protein abundance (concentration: 1mM) of 1.02 ± 0.16. It also gave an NP40-soluble protein abundance (concentration: 2mM) of 1.08 ± 0.11, an NP40-soluble protein abundance (concentration: 4mM) of 1.09 ± 0.15 and an NP40-soluble protein abundance (concentration: 6mM) of 1.08 ± 0.077. It also gave an NP40-soluble protein abundance (concentration: 8mM) of 1.05 ± 0.19 and an NP40-soluble protein abundance (concentration: 10mM) of 1.03 ± 0.13.
For “F5H0F9 and related entries (UniProt Q9UJX4)”, the NP40-soluble protein abundance (concentration: 0.1mM) was 1.07 ± 0.11, the NP40-soluble protein abundance (concentration: 0.5mM) was 1.11 ± 0.12 and the NP40-soluble protein abundance (concentration: 1mM) was 1.03 ± 0.15. For the same target, the NP40-soluble protein abundance (concentration: 2mM) was 1.15 ± 0.13, the NP40-soluble protein abundance (concentration: 4mM) was 1.16 ± 0.24 and the NP40-soluble protein abundance (concentration: 6mM) was 1.15 ± 0.2. For the same target, the NP40-soluble protein abundance (concentration: 8mM) was 1.13 ± 0.17 and the NP40-soluble protein abundance (concentration: 10mM) was 1.11 ± 0.19.
With “G0XQ39 and related entries (UniProt Q13586)” the NP40-soluble protein abundance (concentration: 0.1mM) was 0.932 ± 0.074, the NP40-soluble protein abundance (concentration: 0.5mM) was 0.953 ± 0.07 and the NP40-soluble protein abundance (concentration: 1mM) was 0.948 ± 0.078. It also gave an NP40-soluble protein abundance (concentration: 2mM) of 0.911 ± 0.073, an NP40-soluble protein abundance (concentration: 4mM) of 0.911 ± 0.06 and an NP40-soluble protein abundance (concentration: 6mM) of 0.911 ± 0.07. For the same target, the NP40-soluble protein abundance (concentration: 8mM) was 0.961 ± 0.081 and the NP40-soluble protein abundance (concentration: 10mM) was 0.934 ± 0.082.
In the case of “F2Z2X4 and related entries (UniProt Q9C0E2)”, the NP40-soluble protein abundance (concentration: 0.1mM) is reported as 1.03 ± 0.034, the NP40-soluble protein abundance (concentration: 0.5mM) is reported as 1.05 ± 0.12 and the NP40-soluble protein abundance (concentration: 1mM) is reported as 1.04 ± 0.14. The NP40-soluble protein abundance (concentration: 2mM) was 1.02 ± 0.075, the NP40-soluble protein abundance (concentration: 4mM) was 0.969 ± 0.12 and the NP40-soluble protein abundance (concentration: 6mM) was 0.996 ± 0.13. It also gave an NP40-soluble protein abundance (concentration: 8mM) of 0.913 ± 0.05 and an NP40-soluble protein abundance (concentration: 10mM) of 0.881 ± 0.046.
“F5GXJ1 and related entries (UniProt O75251)” showed an NP40-soluble protein abundance (concentration: 0.1mM) of 1.05 ± 0.07, an NP40-soluble protein abundance (concentration: 0.5mM) of 1.11 ± 0.057 and an NP40-soluble protein abundance (concentration: 1mM) of 1.03 ± 0.013. It also gave an NP40-soluble protein abundance (concentration: 2mM) of 1.1 ± 0.074, an NP40-soluble protein abundance (concentration: 4mM) of 1.07 ± 0.016 and an NP40-soluble protein abundance (concentration: 6mM) of 1.07 ± 0.048. The NP40-soluble protein abundance (concentration: 8mM) was 1.05 ± 0.039 and the NP40-soluble protein abundance (concentration: 10mM) was 1.03 ± 0.07.
